Results as given in patent publication US8609810B2, “Methylglyoxal-scavenging compounds and their use for the prevention and treatment of pain and/or hyperalgesia” (Ruprecht-Karls-Universitat Heidelberg, priority 2009, dated 2013).
At least one peptide structure holds a part that was inferred or is arguable (an end, a ring closure or a residue). Where no end group is shown, it is not given here.

Assays:
[1] = test system: diabetes induced hyperalgesia in diabetic wild-type mice; test: Diabetes induced hyperalgesia, hot-plate assay in STZ-induced diabetic wild-type mice; type: in vivo; settings: mice after 8 weeks of diabetes with manifest hyperalgesia; 1 mg i.p.; FIG. 6C
Method: Diabetic wildtype mice (Male; 18 wks) were injected with either 1 mg GERP or GEAP i.p. Following 1 day of treatment with either peptide, treatment was discontinued, after which consecutive measurements of hyperalgesia were performed to determine biological half-life of the peptide. This was determined to be ca. 80 hrs. Data represent the mean±SEM (N=10), ***P<0.0001, **P<0.001, *P<0.05, NSP>0.05 vs. GERP or GEAP control at respective time point; 000P<0.0001, NSP>0.05 vs. day 0.
Diabetes was induced by i.p. administration of STZ at 60 mg/kg, freshly dissolved in sterile sodium citrate (0.05M, pH4.5) on 6 subsequent days. Control animals received sodium citrate only. Diabetes was verified 16-25 days later by measurement of blood glucose levels in samples from the tail vein using ACCU-CHEK glucose sticks and a conventional Accutrend glucometer. In the first 2 weeks following the onset of diabetes, blood glucose was measured daily. […] Once glucose levels had stabilized, blood glucose was determined at least once a week for the first 2 months, and thereafter every second week. […]
Hyperalgesia was studied using the hot-plate assay with an electronically controlled hot-plate analgesia meter (Columbus Instructments, Columbus, Ohio) at 50° C.. […] The difference in latency times between control and treated animals, was calculated as a measure of hyperalgesia. […]

[2] = test system: methylglyoxal-induced hyperalgesia in healthy wild-type mice; test: Methylglyoxal-induced hyperalgesia, hot-plate assay (in vivo scavenging of methylglyoxal); settings: for reduction of methylglyoxal-induced hyperalgesia: 1 mg i.p. 30 min prior to methylglyoxal (70 μM), hot-plate assay 3 hrs after injection
Method: Healthy wildtype mice (10-12 weeks), were injected with 1 mg GERP (≡1.096×1015 Arg residues) or control peptide GEAP; i.p. 30 mins prior to injection with methylglyoxal (MG; 70 μM). Hyperalgesia was assessed 3 hrs after i.p injection by hot-plate assay. Data represent mean±SEM (N=10). GERP reduced methylglyoxal-induced hyperalgesia by ca. 60% in healthy wildtype mice, whereas the control peptide had no effect, showing that scavanging of methylglyoxal reduced hyperalgesia.
Hyperalgesia was studied using the hot-plate assay with an electronically controlled hot-plate analgesia meter (Columbus Instructments, Columbus, Ohio) at 50° C.. Each mouse was removed from the hot plate when a jumping escape response occurred or hind paws were licked, or after a maximal cut-off time of 60 seconds. […] Three measurements were taken per animal at each of the specified time points and averaged. The difference in latency times between control and treated animals, was calculated as a measure of hyperalgesia.
A synthetic peptide, GERP001, containing ten arginine residues per molecule act as an effective in vivo scavenger of methylglyoxal was designed in house and synthesized (GenWay Biotech, Inc. San Diego, Calif., USA). Healthy wild-type mice (Male; 10-12 weeks) were injected intraperitioneal with 1 mg of either the GERP001 or GEAP, a control peptide in which the arginine residues were substituted for alanine, 30 mins prior to injection with either 0.9% NaCl (Control) or methylglyoxal (70 μM). Hyperalgesia was assessed 3 hrs after administration of methylglyoxal.

## HHHHHHGGGGGERPGERPGERPGERPGERPGERPGERPGERPGERPGERP [GERP001]
[1]
  effect on thermal hyperalgesia in diabetic mice: successfully inhibited thermal hyperalgesia
[2]
  reduction of methylglyoxal-induced hyperalgesia: approx. 60%
[2]; listed as GERP
  reduction of methylglyoxal-induced hyperalgesia: ca. 60%
[2]; 1 mg i.p., MG 70 μM, hot-plate, FIG. 6A
  effect on thermal hyperalgesia in MG-treated healthy wild-type mice: successfully inhibited thermal hyperalgesia
